The values below are quoted from earlier work in paper PMC11859423, “Fluorescent Probes to Image the KCa3.1 Channel in Tumor Cells” (Pharmaceutics, 2025).

The subject of the data set is KCa3.1 channels. To be noted: read-out: IC50 to block KCa3.1 channels; cited from earlier work.

With `Clc1ccccc1C(c1ccccc1)(c1ccccc1)n1ccnc1` [clotrimazole], the IC50 was 70 to 250 nM.
